Data as given in PubChem BioAssay AID1259285 (Sanger Institute, 2017)

Test: 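Kinases needed for HCC56 growth and kinases whose loss boosts drug effects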 (primary screen)
Cells: human HCC56 colorectal cancer cells
Reagents: siRNA pool against human genes
Treatment: DMSO vehicle, or anchor drug BYL719 at 1 µM, cetuximab at 5 µg/ml, or trametinib at 10 nM
Read-out: 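Replicate-averaged viability relative to non-targeting siRNA, expressed as a robust z-score from controls, plus a synergy score for each of three anchor drugs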
Reading the numbers: viability robust z-score, no drug: higher = more viable cells, weaker knock-down effect; viability vs non-targeting pool, no drug: higher = more viable cells; synergy score with BYL719: higher = stronger combined killing with BYL719; synergy score with cetuximab: higher = stronger combined killing with cetuximab; synergy score with trametinib: higher = stronger combined killing with trametinib
Active means: 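Essential when the drug-free viability robust z-score falls below -3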
Calls: active = essential without drug; inactive = no change without drug
This is an unselected part of 794 deposited reagents. Of all reagents, 20 (2.5%) got an active call. 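Calls rest on the drug-free arm alone and ignore synergy scores; viability ratios seem to be capped at 1.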 A number with no mark means an inactive call. No sequences are given here. The record does not give: the amount of reagent, the time to read-out.

gene knocked down | viability robust z-score, no drug | viability vs non-targeting pool, no drug | synergy score with BYL719 | synergy score with cetuximab | synergy score with trametinib
HIPK4 | 0.458 | 1 | -0.162 | -0.142 | -0.194
PI4KA | 0.458 | 1 | -0.162 | -0.142 | -0.102
DAPK2 | 0.121 | 0.971 | 0.0132 | 0.0448 | -0.0272
TP53 | 0.222 | 0.98 | 0.0395 | 0.0446 | -0.0123
PRKAB1 | 0.458 | 1 | 0.0526 | -0.142 | 0.0355
PRKAR2A | 0.458 | 1 | -0.103 | -0.142 | -0.0593
NAGK | -0.774 | 0.894 | -0.0204 | -0.182 | 0.00124
PDK2 | 0.458 | 1 | -0.162 | -0.142 | 0.0224
AK4 | 0.458 | 1 | -0.0725 | -0.142 | -0.017
EPHB4 | -1.34 | 0.845 | 0.0256 | 0.0254 | -0.0235
WT1 | 0.458 | 1 | -0.162 | -0.0504 | -0.018
TBK1 | 0.458 | 1 | 0.0141 | -0.0477 | 0.0515
CDK10 | -0.117 | 0.951 | -0.076 | 0.0542 | 0.0953
ROCK1 | 0.458 | 1 | -0.162 | -0.142 | -0.0226
PRKY | 0.458 | 1 | -0.119 | -0.0304 | -0.0774
NF1 | 0.458 | 1 | -0.162 | -0.142 | -0.149
ABL1 | 0.458 | 1 | -0.00059 | -0.0795 | 0.0526
ITPKB | 0.458 | 1 | -0.146 | -0.142 | -0.131
AXL | 0.458 | 1 | -0.162 | -0.142 | -0.0301
ULK2 | 0.458 | 1 | -0.078 | -0.142 | 0.0293
PIP4K2B | 0.458 | 1 | 0.0595 | -0.0575 | 0.0473
CDK5 | 0.458 | 1 | -0.0333 | -0.0287 | -0.00275
GSK3B | 0.458 | 1 | -0.162 | -0.142 | -0.0416
RIPK4 | 0.458 | 1 | -0.155 | 0.0419 | -0.0516
GRK6 | 0.458 | 1 | 0.0613 | -0.0398 | 0.0977
DGKI | 0.458 | 1 | -0.0793 | -0.127 | 0.0338
CDKL3 | 0.458 | 1 | -0.0086 | -0.142 | -0.0764
MET | -0.325 | 0.933 | 0.0477 | 0.00724 | 0.0255
TGFBR3 | 0.458 | 1 | -0.0495 | -0.0111 | -0.0276
CLK4 | 0.458 | 1 | -0.105 | -0.142 | -0.0451
PEAK1 | -1.05 | 0.871 | 0.0728 | 0.0413 | 0.0111

No new results follow: entries from further up.
gene knocked down | viability robust z-score, no drug | viability vs non-targeting pool, no drug | synergy score with BYL719 | synergy score with cetuximab | synergy score with trametinib
TP53 | 0.222 | 0.98 | 0.0395 | 0.0446 | -0.0123
PRKAB1 | 0.458 | 1 | 0.0526 | -0.142 | 0.0355
PRKAR2A | 0.458 | 1 | -0.103 | -0.142 | -0.0593

Further reagents follow.
gene knocked down | viability robust z-score, no drug | viability vs non-targeting pool, no drug | synergy score with BYL719 | synergy score with cetuximab | synergy score with trametinib
MAP3K21 | -0.629 | 0.907 | -0.02 | -0.0536 | 0.0383
PDXK | 0.458 | 1 | -0.162 | -0.142 | -0.134
CDK19 | 0.323 | 0.988 | 0.051 | -0.018 | 0.203
EPHA6 | -2.18 | 0.773 | -0.012 | 0.0678 | 0.0492
TSKS | 0.458 | 1 | -0.162 | -0.142 | -0.321
HASPIN | 0.458 | 1 | 0.025 | -0.119 | 0.0291
BMPR1A | 0.458 | 1 | -0.0297 | 0.0448 | -0.00523
HIPK1 | 0.458 | 1 | -0.153 | -0.142 | -0.167
MYO3A | -1.92 | 0.795 | 0.0195 | 0.0242 | 0.0232
PAK6 | 0.458 | 1 | 0.262 | -0.0273 | -0.0974
MAPK6 | 0.458 | 1 | -0.102 | -0.142 | -0.065
PSKH2 | 0.458 | 1 | -0.0157 | 0.0249 | 0.165
SBK1 | 0.458 | 1 | -0.0286 | -0.142 | -0.159
CLK1 | 0.458 | 1 | -0.162 | -0.142 | -0.204
DCLK1 | 0.458 | 1 | 0.0111 | -0.0281 | 0.081
ALPK3 | 0.458 | 1 | 0.225 | 0.165 | 0.0956
CDK2 | 0.458 | 1 | -0.162 | -0.142 | -0.0415
PANK3 | 0.458 | 1 | -0.162 | -0.142 | -0.0513
TYK2 | 0.458 | 1 | 0.0636 | -0.117 | -0.0237
DAPK3 | 0.458 | 1 | 0.044 | -0.0765 | 0.141
AK1 | 0.391 | 0.994 | -0.0627 | 0.0142 | 0.0664
STK32C | 0.458 | 1 | -0.107 | -0.142 | -0.0849
WHR1 | 0.458 | 1 | -0.162 | -0.142 | -0.094
NEK2 | 0.458 | 1 | -0.0713 | -0.00828 | 0.0278
PRKG1 | 0.458 | 1 | 0.0705 | -0.0595 | 0.0244
IDH2 | 0.458 | 1 | -0.162 | -0.142 | -0.0826
MAP2K6 | 0.458 | 1 | -0.107 | -0.0537 | 0.019
MAPKAPK2 | 0.1 | 0.969 | 0.00681 | 0.0659 | 0.0945
KDR | 0.458 | 1 | -0.0866 | -0.142 | -0.0427
BRD4 | 0.458 | 1 | -0.0473 | -0.142 | -0.0811
TNK2 | 0.458 | 1 | -0.162 | -0.142 | -0.138
SNRK | -1.07 | 0.869 | 0.0261 | 0.00508 | -0.107
